Results published in patent US20240376151A1, “STAPLED PEPTIDES AND METHODS THEREOF” (FOG PHARMACEUTICALS, INC., priority 2022, published 2024).
These are yes or no findings as the source states them, for the method shown. Some entries that bind do so weakly or less than the wild type.

Sequences of proteins named here, by UniProt entry; tags and fusion partners are left off. A change or cut given only in a name is not applied to a line headed by its entry.
UniProt Q96EP0: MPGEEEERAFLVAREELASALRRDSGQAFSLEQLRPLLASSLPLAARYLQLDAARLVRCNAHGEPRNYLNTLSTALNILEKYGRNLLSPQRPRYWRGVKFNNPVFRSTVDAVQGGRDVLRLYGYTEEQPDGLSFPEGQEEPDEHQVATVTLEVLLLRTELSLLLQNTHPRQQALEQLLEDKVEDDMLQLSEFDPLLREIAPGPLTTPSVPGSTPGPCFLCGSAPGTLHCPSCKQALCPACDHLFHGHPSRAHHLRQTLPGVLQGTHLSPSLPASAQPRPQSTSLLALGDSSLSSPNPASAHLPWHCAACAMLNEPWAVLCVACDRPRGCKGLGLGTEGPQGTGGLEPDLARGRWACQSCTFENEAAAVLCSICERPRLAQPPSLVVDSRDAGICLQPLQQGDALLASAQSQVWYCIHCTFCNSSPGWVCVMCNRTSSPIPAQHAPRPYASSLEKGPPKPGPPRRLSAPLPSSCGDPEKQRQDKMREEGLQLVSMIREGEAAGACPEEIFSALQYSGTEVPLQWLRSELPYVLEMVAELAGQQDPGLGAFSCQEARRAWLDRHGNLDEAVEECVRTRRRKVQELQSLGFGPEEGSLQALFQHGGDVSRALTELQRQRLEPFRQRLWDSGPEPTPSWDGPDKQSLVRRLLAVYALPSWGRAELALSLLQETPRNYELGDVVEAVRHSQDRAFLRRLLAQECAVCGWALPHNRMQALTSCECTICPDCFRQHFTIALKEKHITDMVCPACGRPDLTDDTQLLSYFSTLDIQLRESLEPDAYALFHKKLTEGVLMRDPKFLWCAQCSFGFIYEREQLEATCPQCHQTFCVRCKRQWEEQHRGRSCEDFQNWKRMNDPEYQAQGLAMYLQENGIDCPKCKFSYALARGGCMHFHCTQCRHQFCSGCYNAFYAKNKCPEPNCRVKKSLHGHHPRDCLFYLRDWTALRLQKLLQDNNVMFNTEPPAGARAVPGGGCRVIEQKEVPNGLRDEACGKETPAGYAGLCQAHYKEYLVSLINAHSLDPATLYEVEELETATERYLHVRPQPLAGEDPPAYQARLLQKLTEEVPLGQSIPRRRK

Assays:
[1] = biological target: RNF31 UBA domain (residues 480-639) (Homo sapiens (Human)) (UniProt Q96EP0); assay: competition FP against 5FAM-FP06655 (1.m42) on RNF31 UBA
[2] = biological target: RNF31 UBA domain (residues 480-639) (Homo sapiens (Human)) (UniProt Q96EP0); assay: competition FP

B1: Sharpin/SIPL1 UBL domain, unlabeled recombinant protein (protein, UniProt Q9H0F6 206-309, looked up)
chain: SVQLQEACFPPGPIRLQVTLEDAASAASAASSAHVALQVHPHCTVAALQEQVFSELGFPPAVQRWVIGRCLCVPERSLASYGVRQDGDPAFLYLLSAPREAPAT
B1 was tested, and the binding [1] was “binds” and the binding [2] was “binds”.
